Source: PMC10373549
Results are given in words; binding and its absence hold for the method and conditions named. Binding seen in cells or lysates may run through a third protein. Some results given as binding are weak or reduced against the parent protein; the word gives no strength. For some assays here: Tags and fused reporters may be left off the sequences shown.

What was measured:
[1] = target: T1, SMC5-SMC6 localization factor 2 (SLF2), endogenous (human (endogenous in HepG2-NTCP)) (UniProt Q8IX21); assay: co-IP; nucleus lysate of HepG2-NTCP cells cultured in PMM for 48 h (1% CA630, TBS, benzonase); SLF2 antibody on Dynabeads Protein A, 3 h at 4°C; washes with TBS and 250 mM NaCl; Western blot for SMC6
T1 sequence: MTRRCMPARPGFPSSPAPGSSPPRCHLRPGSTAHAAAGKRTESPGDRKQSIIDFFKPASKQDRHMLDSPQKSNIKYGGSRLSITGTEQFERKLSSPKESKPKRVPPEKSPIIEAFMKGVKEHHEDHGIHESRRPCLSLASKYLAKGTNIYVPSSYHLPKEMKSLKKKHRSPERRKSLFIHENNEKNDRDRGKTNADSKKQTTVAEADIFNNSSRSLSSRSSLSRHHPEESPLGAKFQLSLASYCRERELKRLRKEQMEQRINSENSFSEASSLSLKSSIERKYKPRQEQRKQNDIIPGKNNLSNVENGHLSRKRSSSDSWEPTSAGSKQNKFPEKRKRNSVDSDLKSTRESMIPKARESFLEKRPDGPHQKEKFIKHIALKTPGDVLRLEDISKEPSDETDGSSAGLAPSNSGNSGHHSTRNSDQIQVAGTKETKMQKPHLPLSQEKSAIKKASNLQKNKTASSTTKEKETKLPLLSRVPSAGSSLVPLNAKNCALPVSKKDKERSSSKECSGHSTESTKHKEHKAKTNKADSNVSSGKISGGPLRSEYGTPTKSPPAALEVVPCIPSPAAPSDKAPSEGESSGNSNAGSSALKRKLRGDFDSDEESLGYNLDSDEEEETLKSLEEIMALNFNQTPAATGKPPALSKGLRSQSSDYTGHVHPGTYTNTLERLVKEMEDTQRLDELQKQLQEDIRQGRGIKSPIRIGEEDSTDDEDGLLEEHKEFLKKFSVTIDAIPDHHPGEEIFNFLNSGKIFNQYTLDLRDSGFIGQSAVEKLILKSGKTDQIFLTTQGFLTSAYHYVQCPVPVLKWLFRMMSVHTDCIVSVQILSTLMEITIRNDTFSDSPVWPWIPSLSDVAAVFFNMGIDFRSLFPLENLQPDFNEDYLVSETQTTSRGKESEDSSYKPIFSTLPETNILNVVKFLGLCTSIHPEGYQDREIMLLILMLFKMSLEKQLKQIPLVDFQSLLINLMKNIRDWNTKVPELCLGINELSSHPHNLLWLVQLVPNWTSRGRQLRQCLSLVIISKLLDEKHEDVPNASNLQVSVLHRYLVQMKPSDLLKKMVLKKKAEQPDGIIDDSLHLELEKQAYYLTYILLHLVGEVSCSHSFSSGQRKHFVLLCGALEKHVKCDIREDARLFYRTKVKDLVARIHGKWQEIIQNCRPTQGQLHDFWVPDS

[2] = target: T2, full-length SLF2 (SLF2-HA) (human) (UniProt Q8IX21); assay: co-IP; nucleus lysates of SLF2 knockout HepG2-NTCP cells transduced with lentivirus expressing SLF2-HA or truncation variants; anti-HA IP; Western blot for SMC6 and SLF2-HA
T2 sequence: T1 sequence

B1: SMC6, endogenous (protein, UniProt Q96SB8 1-1091)
chain: MAKRKEENFSSPKNAKRPRQEELEDFDKDGDEDECKGTTLTAAEVGIIESIHLKNFMCHSMLGPFKFGSNVNFVVGNNGSGKSAVLTALIVGLGGRAVATNRGSSLKGFVKDGQNSADISITLRNRGDDAFKASVYGNSILIQQHISIDGSRSYKLKSATGSVVSTRKEELIAILDHFNIQVDNPVSVLTQEMSKQFLQSKNEGDKYKFFMKATQLEQMKEDYSYIMETKERTKEQIHQGEERLTELKRQCVEKEERFQSIAGLSTMKTNLESLKHEMAWAVVNEIEKQLNAIRDNIKIGEDRAARLDRKMEEQQVRLNEAEQKYKDIQDKLEKISEETNARAPECMALKADVVAKKRAYNEAEVLYNRSLNEYKALKKDDEQLCKRIEELKKSTDQSLEPERLERQKKISWLKERVKAFQNQENSVNQEIEQFQQAIEKDKEEHGKIKREELDVKHALSYNQRQLKELKDSKTDRLKRFGPNVPALLEAIDDAYRQGHFTYKPVGPLGACIHLRDPELALAIESCLKGLLQAYCCHNHADERVLQALMKRFYLPGTSRPPIIVSEFRNEIYDVRHRAAYHPDFPTVLTALEIDNAVVANSLIDMRGIETVLLIKNNSVARAVMQSQKPPKNCREAFTADGDQVFAGRYYSSENTRPKFLSRDVDSEISDLENEVENKTAQILNLQQHLSALEKDIKHNEELLKRCQLHYKELKMKIRKNISEIRELENIEEHQSVDIATLEDEAQENKSKMKMVEEHMEQQKENMEHLKSLKIEAENKYDAIKFKINQLSELADPLKDELNLADSEVDNQKRGKRHYEEKQKEHLDTLNKKKRELDMKEKELEEKMSQARQICPERIEVEKSASILDKEINRLRQKIQAEHASHGDREEIMRQYQEARETYLDLDSKVRTLKKFIKLLGEIMEHRFKTYQQFRRCLTLRCKLYFDNLLSQRAYCGKMNFDHKNETLSISVQPGEGNKAAFNDMRALSGGERSFSTVCFILSLWSIAESPFRCLDEFDVYMDMVNRRIAMDLILKMADSQRFRQFILLTPQSMSSLPSSKLIRILRMSDPERGQTTLPFRPVTQEEDDDQR
- binding [1]: binds
- binding [2]: binds
